Experimental data from PubChem BioAssay AID330 (DTP/NCI, 2004).
The list shows only some results of the screen, not a fair sample: it is rich in T/C values a quarter to a half above the control, in often repeated tests (any T/C) and in doses without a T/C. Further doses and runs are listed elsewhere. T/C: endpoint of the treated group in % of that of the vehicle group. Some entries give survivors of the animals treated and no T/C: the source files T/C as zero there, which appears to mark a toxic dose or a test without result, not a measured value. Some doses without a T/C left all or most animals alive at the check, yet need not have been tolerated: survival well below the control is almost never listed, so the zero probably covers shortened survival too. Survivors were counted at the toxicity check, usually on the fifth day, unless a day is given; later deaths do not show. Schedules are NCI's codes, read here as Q, the interval in days (D) or hours (H), X, the number of doses. Some entries hold several experiments; the results are listed from low to high. Where survival is the endpoint, the PubChem record calls one and a half times the control and up active, and a quarter to a half above the control has no call in these data; cut-offs in other NCI protocols can differ. Some T/C values carry the count of animals alive at the toxicity check (mostly the fifth day); where none is given, no animal had died by that day.

System: P388 leukemia ip, CD2F1 mice, survival T/C
Experiment: NCI In Vivo Anticancer Drug Screen. Data for tumor model P388 Leukemia (intraperitoneal) in CD2F1 (CDF1) mice
Conditions: T/C endpoint: median survival time, higher T/C = longer survival
[1] = dose: 50.0 mg/kg/injection, schedule: Q01DX005 (ip), vehicle: saline with Tween-80
[2] = dose: 100.0 mg/kg/injection, schedule: Q01DX005 (ip), vehicle: saline with Tween-80
[3] = dose: 200.0 mg/kg/injection, schedule: Q01DX005 (ip), vehicle: saline with Tween-80
[4] = dose: 100.0 mg/kg/injection, schedule: Q01DX009 (ip), vehicle: saline
[5] = dose: 240.0 mg/kg/injection, schedule: Q01DX005 (ip), vehicle: Klucel (hydroxypropylcellulose) (HPC)
[6] = dose: 25.0 mg/kg/injection, schedule: Q01DX009 (ip), vehicle: saline with Tween-80
[7] = dose: 240.0 mg/kg/injection, schedule: Q01DX005 (ip), vehicle: saline with Tween-80
[8] = dose: 120.0 mg/kg/injection, schedule: Q01DX005 (ip), vehicle: saline with Tween-80
[9] = dose: 200.0 mg/kg/injection, schedule: Q01DX009 (ip), vehicle: saline with Tween-80

## c1ccc(P(CCNCCP(c2ccccc2)c2ccccc2)c2ccccc2)cc1
[1]
  T/C: 133 % of control
[2]
  T/C: 135 % of control [5 of 6 alive]
[3]
  T/C: 129 % of control
  survivor count: 2 of 6
dose: 400.0 mg/kg/injection, schedule: Q01DX005 (ip), vehicle: saline with Tween-80
  survivor count: 1 of 6

## C[N+](C)([O-])CCCNc1c2ccccc2nc2cccc([N+](=O)[O-])c12
dose: 6.25 mg/kg/injection, schedule: Q01DX009 (ip), vehicle: saline
  survivor count: 6 of 6
dose: 12.5 mg/kg/injection, schedule: Q01DX009 (ip), vehicle: saline
  survivor count: 0 of 6
dose: 50.0 mg/kg/injection, schedule: Q01DX009 (ip), vehicle: saline
  survivor count: 0 of 6
[4]
  survivor count: 0 of 6
dose: 200.0 mg/kg/injection, schedule: Q01DX009 (ip), vehicle: saline
  survivor count: 0 of 6

## CCC1=C[C@@H]2C[C@](C(=O)OC)(c3cc4c(cc3OC)N(C)[C@H]3[C@@](O)(C(=O)OC)[C@H](OC(C)=O)[C@]5(CC)C=CCN6CC[C@]43[C@@H]65)c3[nH]c4ccccc4c3CCN(C1)[C@@H]2O
dose: 5.0 mg/kg/injection, schedule: Q01DX001 (ip), vehicle: water
  T/C: 135 % of control
dose: 10.0 mg/kg/injection, schedule: Q01DX001 (ip), vehicle: water
  T/C: 129 % of control

## [CH3][Sn]([CH3])([N]=C=S)[N]=C=S.c1ccc(-c2nnc(-c3ccccn3)nc2-c2ccccc2)cc1
[5]
  survivor count: 0 of 6

## N#CC(C(=O)C(N)=O)c1nc2ccccc2s1 (configuration not stated)
[3]
  survivor count: 0 of 6

## O=C(O)c1ccccc1C(=O)O.[Cu+2].[NH-]CCC[NH-]
dose: 25.0 mg/kg/injection, schedule: Q04DX002 (ip), vehicle: saline with Tween-80
  survivor count: 0 of 6
dose: 50.0 mg/kg/injection, schedule: Q04DX002 (ip), vehicle: saline with Tween-80
  survivor count: 0 of 6

## CCOC(=O)c1c(C(=O)Nc2ccccc2)c(-c2ccccc2)n(NC(=O)c2cccc(Cl)c2)c1C
[5]
  survivor count: 1 of 6

## C=C[CH2][Sn]([CH2]C)([CH2]C)[CH2]C=C
dose: 50.0 mg/kg/injection, schedule: Q01DX005 (ip), vehicle: saline, evaluated on day 20
  T/C: 136 % of control
dose: 50.0 mg/kg/injection, schedule: Q01DX005 (ip), vehicle: saline, evaluated on day 30
  T/C: 125 % of control
dose: 100.0 mg/kg/injection, schedule: Q01DX005 (ip), vehicle: saline
  survivor count: 1 of 6
dose: 200.0 mg/kg/injection, schedule: Q01DX005 (ip), vehicle: saline
  survivor count: 0 of 6

## CCCCCCCCCCCCCCCCCC(=O)NN
dose: 50.0 mg/kg/injection, schedule: Q04DX003 (ip), vehicle: saline with Tween-80
  survivor count: 6 of 6

## C=C1C(C)C2C(Cc3ccccc3)NC(=O)C23C(OC(C)=O)/C=C/C(C)(O)CC(C)C/C=C/C3C1O (configuration not stated)
dose: 12.5 mg/kg/injection, schedule: Q01DX009 (ip), vehicle: Klucel (hydroxypropylcellulose) (HPC)
  T/C: 132 % of control
dose: 12.5 mg/kg/injection, schedule: Q01DX009 (ip), vehicle: saline with Tween-80
  T/C: 138 % of control [4 of 6 alive]
dose: 25.0 mg/kg/injection, schedule: Q01DX009 (ip), vehicle: Klucel (hydroxypropylcellulose) (HPC)
  survivor count: 1 of 6
[6]
  survivor count: 1 of 6
dose: 50.0 mg/kg/injection, schedule: Q01DX009 (ip), vehicle: Klucel (hydroxypropylcellulose) (HPC)
  survivor count: 0 of 6

## OCCN1CCN(c2c3ccccc3nc3ccccc23)CC1
dose: 100.0 mg/kg/injection, schedule: Q04DX003 (ip), vehicle: Klucel (hydroxypropylcellulose) (HPC)
  survivor count: 3 of 6
dose: 100.0 mg/kg/injection, schedule: Q04DX003 (ip), vehicle: saline
  survivor count: 4 of 6
dose: 200.0 mg/kg/injection, schedule: Q04DX003 (ip), vehicle: Klucel (hydroxypropylcellulose) (HPC)
  survivor count: 1 of 6
dose: 400.0 mg/kg/injection, schedule: Q04DX003 (ip), vehicle: Klucel (hydroxypropylcellulose) (HPC)
  survivor count: 0 of 6

## CN(C)CCCNc1c2ccccc2nc2c1c(=O)n(C)c(=O)n2C
dose: 240.0 mg/kg/injection, schedule: Q01DX005 (ip), vehicle: saline
  survivor count: 0 of 6

## CN(C)CCOC(=O)Nc1ccccc1C(F)(F)F
[7]
  survivor count: 0 of 6

## COc1cc([C@@H]2c3cc4c(cc3[C@H](OC(=O)CCC(=O)O)[C@H]3COC(=O)[C@H]23)OCO4)cc(OC)c1OC
dose: 12.5 mg/kg/injection, schedule: Q01DX005 (ip), vehicle: saline with Tween-80
  T/C: 129 % of control
dose: 25.0 mg/kg/injection, schedule: Q01DX005 (ip), vehicle: saline with Tween-80
  survivor count: 4 of 6
[1]
  survivor count: 2 of 6 and 2 of 5
[2]
  survivor count: 0 of 5
[3]
  survivor count: 0 of 5

## O=C1CC[C@@H](NC(=O)Cc2ccccc2)C(=O)N1
[8]
  survivor count: 6 of 6
[7]
  survivor count: 6 of 6
dose: 250.0 mg/kg/injection, schedule: Q01DX005 (ip), vehicle: saline with Tween-80
  survivor count: 6 of 6
dose: 500.0 mg/kg/injection, schedule: Q01DX005 (ip), vehicle: saline with Tween-80
  survivor count: 6 of 6
dose: 1000.0 mg/kg/injection, schedule: Q01DX005 (ip), vehicle: saline with Tween-80
  survivor count: 6 of 6
dose: 2000.0 mg/kg/injection, schedule: Q01DX005 (ip), vehicle: saline with Tween-80
  survivor count: 2 of 6

## Cc1c(O)c(=O)ccn1CCO
dose: 400.0 mg/kg/injection, schedule: Q01DX005 (ip), vehicle: saline
  T/C: 125 and 136 % of control

## CCCC/C=C\CCCCCCCCCC1=C(O)C(=O)C=C(OC)C1=O
dose: 51.0 mg/kg/injection, schedule: Q01DX005 (ip), vehicle: Klucel (hydroxypropylcellulose) (HPC)
  survivor count: 3 of 6
dose: 102.0 mg/kg/injection, schedule: Q01DX005 (ip), vehicle: Klucel (hydroxypropylcellulose) (HPC)
  survivor count: 0 of 6
dose: 204.0 mg/kg/injection, schedule: Q01DX005 (ip), vehicle: Klucel (hydroxypropylcellulose) (HPC)
  survivor count: 0 of 6

## NNS(=O)(=O)c1ccccc1
[9]
  survivor count: 0 of 6

## CCN(CC)Cc1c(C)[nH]c2ccc(NC(C)=O)cc2c1=O
[9]
  survivor count: 3 of 6

## COc1ccc([N+](=O)[O-])c(OC(C)=O)c1OC
dose: 25.0 mg/kg/injection, schedule: Q01DX009 (ip), vehicle: other
  survivor count: 6 of 6

## O=C1C(Cl)=C(NCCCN(CCO)CCO)C(=O)c2ccccc21
[4]
  survivor count: 3 of 6 and 4 of 6

## C[N+](C)=c1ccc2nc3c(ccc4ccccc43)oc-2c1
[1]
  survivor count: 0 of 5
[2]
  survivor count: 0 of 5
[3]
  survivor count: 0 of 5

## O=C(c1ccccc1)c1ccccc1NCC(O)COc1ccc(Cl)cc1C(=O)c1ccccc1 (configuration not stated)
[8]
  survivor count: 6 of 6

## CCOC(=O)c1ccc(NC(=O)Nc2cccc(NC(C)=O)c2)cc1
dose: 60.0 mg/kg/injection, schedule: Q01DX005 (ip), vehicle: Klucel (hydroxypropylcellulose) (HPC)
  survivor count: 6 of 6
dose: 120.0 mg/kg/injection, schedule: Q01DX005 (ip), vehicle: Klucel (hydroxypropylcellulose) (HPC)
  survivor count: 6 of 6
[5]
  survivor count: 6 of 6

## CC(=O)c1c(CO[N+](=O)[O-])n([O-])c2ccccc2[n+]1=O
[7]
  survivor count: 4 of 6

## CC(=O)[O][Hg][CH]1CCC2OC1CC[CH]2[Hg][O]C(C)=O (configuration not stated)
[6]
  survivor count: 3 of 6
dose: 50.0 mg/kg/injection, schedule: Q01DX009 (ip), vehicle: saline with Tween-80
  survivor count: 0 of 6
dose: 100.0 mg/kg/injection, schedule: Q01DX009 (ip), vehicle: saline with Tween-80
  survivor count: 0 of 6
[9]
  survivor count: 0 of 6

## CN1C(=O)CC2(C)C1=CCc1scnc12 (configuration not stated)
dose: 60.0 mg/kg/injection, schedule: Q01DX005 (ip), vehicle: saline with Tween-80
  survivor count: 3 of 6
[8]
  survivor count: 1 of 6
[7]
  survivor count: 0 of 6
